Assay results taken from PMC6397875.

Amino acid sequences for entries named in this document (tags omitted). A change or cut given only in a name is not applied to a line headed by its entry.
UniProt A0A384WD98: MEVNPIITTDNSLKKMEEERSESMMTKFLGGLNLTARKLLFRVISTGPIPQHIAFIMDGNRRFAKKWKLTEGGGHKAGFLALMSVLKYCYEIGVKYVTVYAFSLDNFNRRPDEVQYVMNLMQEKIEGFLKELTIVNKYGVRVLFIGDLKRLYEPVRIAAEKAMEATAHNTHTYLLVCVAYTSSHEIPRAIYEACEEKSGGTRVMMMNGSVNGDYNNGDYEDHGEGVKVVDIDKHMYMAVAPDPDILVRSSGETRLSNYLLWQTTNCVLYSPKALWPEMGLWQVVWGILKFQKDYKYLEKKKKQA
UniProt A0A384WD08: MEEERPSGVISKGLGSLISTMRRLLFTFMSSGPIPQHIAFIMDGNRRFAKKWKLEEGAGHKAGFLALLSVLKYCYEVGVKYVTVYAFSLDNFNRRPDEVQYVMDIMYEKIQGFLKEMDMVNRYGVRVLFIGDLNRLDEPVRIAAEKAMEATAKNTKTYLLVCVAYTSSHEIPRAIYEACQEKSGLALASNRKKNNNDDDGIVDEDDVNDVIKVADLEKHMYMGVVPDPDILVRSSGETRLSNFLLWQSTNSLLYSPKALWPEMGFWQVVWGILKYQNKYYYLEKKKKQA
UniProt A0A384WD26: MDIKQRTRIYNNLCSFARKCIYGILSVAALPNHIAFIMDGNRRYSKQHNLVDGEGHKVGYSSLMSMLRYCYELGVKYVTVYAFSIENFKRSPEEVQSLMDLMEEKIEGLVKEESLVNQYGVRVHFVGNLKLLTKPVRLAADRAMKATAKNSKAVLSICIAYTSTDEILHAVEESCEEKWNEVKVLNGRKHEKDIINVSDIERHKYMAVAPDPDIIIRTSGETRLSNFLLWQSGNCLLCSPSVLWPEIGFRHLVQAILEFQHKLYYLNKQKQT

Target: PaCBP-Cub-LexA-VP16 (Parthenium argentatum (guayule))
Assay: two-hybrid; split-ubiquitin membrane yeast two-hybrid (MYTH) in strain THY.AP4; bait PaCBP-Cub-LexA-VP16, preys fused to NubG; growth on SC-Leu-Trp-Ade-His with 5, 10 or 25 mM 3-AT, 3 days at 30°C; β-galactosidase (ONPG, Miller units)

binding	Substance
binds	NubG-HA-PaCPT3 (from UniProt A0A384WD98) (enzyme)
binds	NubG-HA-PaCPT2 (from UniProt A0A384WD08) (enzyme)
binds	NubG-HA-PaCPT1 (from UniProt A0A384WD26) (enzyme)

No constants are given. Whether binding was seen depends on the method and setting. Binding calls can cover weak binding; strength is not graded here.
